Results taken from US10899764B2, “Imidazo isoindole derivative, preparation method therefor and medical use thereof” (Jiangsu Hengrui Medicine Co., Ltd., priority 2015, dated 2021).

What was measured:
[1] = Pharmacokinetics assay in SD rats after intragastrical administration; details: both, Sprague-Dawley, rat, in vivo, po, 10 mg/kg
[2] = Pharmacokinetics assay in c57bl/6 mice after intragastric administration; details: female, C57BL/6, mouse, in vivo, po, 2 mg/kg

CL/F [1] | Vd/F [1] | half-life [1] | AUC [2] | CL/F [2] | Cmax [2] | MRT [2] | Vd/F [2] | half-life [2] | Compound
15.2 ± 10.9 mL/min/kg | 2.62 ± 1.59 L/kg | 2.22 ± 0.48 h | – | – | – | – | – | – | Cn1cc(-c2ccc(N3CCC(C4c5c(F)cccc5-c5cncn54)CC3)cc2)cn1 (stereo not drawn) [Example 9, 6-fluoro-5-(1-(4-(1-methyl-1H-pyrazol-4-yl)phenyl)piperidin-4-yl)-5H-imidazo[5,1-a]isoindole]
– | – | – | 5670 ng·h/mL | 5.88 mL/min/kg | 972 ng/mL | 6.99 h | 2.44 L/kg | 4.79 h | Cn1cc(-c2ccc(N3CCC([C@H]4c5c(F)cccc5-c5cncn54)CC3)cc2)cn1 [Example 28, (S)-6-fluoro-5-(1-(4-(1-methyl-1H-pyrazol-4-yl)phenyl)piperidin-4-yl)-5H-imidazo[5,1-a]isoindole]
